Values from PubChem BioAssay AID504784 (Drosophila RNAi Screening Center, 2011)

- Purpose: 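Search for regulators of lipid droplet storage in oleate-fed fly cells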 (primary screen)
- System: Drosophila Kc167 embryonic cells
- Knock-down reagent: long dsRNA against Drosophila genes, about 250 ng dsRNA per well
- Timing: 4 days
- Treatment: cells fed 400 µM oleic acid bound to BSA
- Measured: 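Cells imaged and segmented; ratio of lipid droplet area to nuclear area, log-transformed, then normalised as a B-score over the screen; higher means more stored lipid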
- Reading the numbers: droplet/nuclear area B-score: higher = more stored lipid (overstorage)
The screen tested about 17,000 reagents; shown is an unselected part of those that have a named target and a result. 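Each column is one replicate's B-score; the combined score over replicates was not deposited, so single values may mislead.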 Further read-outs or replicates are left out here. Reagent sequences are not shown.

Target gene,PubChem SID,"droplet/nuclear area B-score, replicate 1"
TwdlN,SID104195605,1.34
CR30068 (retired record),SID104185269,0.21
Npc1a,SID104183170,-0.178
CG6409,SID104190422,-1.41
CG6409,SID104201830,-1.04
CG14984,SID104188234,0.102
CG5114,SID104190274,-1.46
Xbp1,SID104184345,0.21
Xbp1,SID104201319,-0.0265
Traf-like,SID104199686,-0.871
PolE1,SID104195904,0.168
CheB38c,SID104182181,-0.402
CG12075,SID104197593,-2.75
Obp19c,SID104200320,0.725
MrgBP,SID104186209,2.79
CG7766,SID104198216,-2.02
CG17721,SID104195045,0.107
Lsm11,SID104186030,0.491
CG9864,SID104187138,-0.276
CG4000,SID104195327,1.06
CG4000,SID104201262,2.47
spoon,SID104198091,1.81
Brd,SID104189477,0.49
ArfGAP3,SID104191586,0.0701
Cln7,SID104190797,-2.3
CG31140,SID104194395,-1.73
CG31140,SID104195696,0.664
CG8060,SID104186856,0.112
nmo,SID104188694,0.565
nmo,SID104191169,1.04
cato,SID104187381,0.193
Rab2,SID104184809,-0.606
polybromo,SID104194099,-0.324
frtz,SID104180304,1.99

Part of the list above, set out differently:
{"Target gene":"Cln7","PubChem SID":"SID104190797","droplet/nuclear area B-score, replicate 1":-2.3}
{"Target gene":"CG31140","PubChem SID":"SID104194395","droplet/nuclear area B-score, replicate 1":-1.73}
